# Patent US20190161499A1, “PESTICIDALLY ACTIVE 1,2,4-TRIAZOLE DERIVATIVES” (SYNGENTA PARTICIPATIONS AG, priority 2015, published 2019)
# Some entries share one result that the patent states for a list of compounds. At least one compound was matched to its structure with a doubt left.
# System: Spodoptera littoralis (Egyptian Cotton Leaf Worm)
# Test: Spodoptera littoralis cotton leaf disc spray test
# Format: in vivo
# Conditions: application rate 200 ppm; L1 larvae; 3 days after infestation
# Method: Spodoptera littoralis (Egyptian Cotton Leaf Worm)
# Cotton leaf discs were placed on agar in 24-well microtiter plates and sprayed with aqueous test solutions prepared from 10,000 ppm DMSO stock solutions. After drying, the leaf discs were infested with five L1 larvae. The samples were assessed for mortality, anti-feedant effect, and growth inhibition in comparison to untreated samples 3 days after infestation. Control of Spodoptera littoralis by a test sample is when at least one of mortality, anti-feedant effect, and growth inhibition is higher than the untreated sample.
row,SMILES,"control (at least one of mortality, anti-feedant effect, growth inhibition)"
1,Clc1ccc(-c2nc(CN3CCC(c4ncccn4)CC3)n(-c3ncc(Cl)cc3Cl)n2)cc1 [Example 1.90],at least 80%
2,Fc1ccccc1-n1nc(-c2ccc(Cl)cc2)nc1CN1CCC(c2nccc(C(F)(F)F)n2)CC1 [Example 1.32],at least 80%
3,Clc1ccc(-c2nc(CN3CCC(c4ncccn4)CC3)n(-c3ncccc3Cl)n2)cc1 [Example 1.89],at least 80%
4,COC(=O)C1CCN(Cc2nc(-c3ccc(Cl)cc3)nn2-c2ccccc2F)CC1C (centres unmarked) [Example 5.10],at least 80%
5,CON=CC1CCN(Cc2nc(-c3ccc(Cl)cc3)nn2-c2ccccc2F)CC1 [Example 1.10],at least 80%
6,Fc1ccccc1-n1nc(-c2ccc(C(F)(F)F)cn2)nc1CN1CCC(c2ncccn2)CC1 [Example 1.97],at least 80%
7,Fc1ccc(-c2noc(C3CCN(Cc4nc(-c5ccc(Cl)cc5)nn4-c4ccccc4F)CC3)n2)cc1 [Example 1.17],at least 80%
8,FC(F)(F)c1cccc(-n2nc(-c3ccc(Cl)cc3)nc2CN2CCC(c3ncccn3)CC2)c1 [Example 1.81],at least 80%
9,FC(F)(F)c1ccc(-n2nc(-c3ccc(Cl)cc3)nc2CN2CCC(c3ncccn3)CC2)c(Cl)c1 [Example 1.67],at least 80%
10,Fc1ccccc1-n1nc(-c2ccc(Cl)cc2)nc1CN1CCC(c2nc(C(F)(F)F)c[nH]2)CC1 [Example 1.109],at least 80%
11,FC(F)(F)c1cnc(-n2nc(-c3ccc(Cl)cc3)nc2CN2CCC(c3ncccn3)CC2)c(Cl)c1 [Example 1.68],at least 80%
